The results in this text go back to US20260209376A1.

For assay [1], the target named is cynomolgus monkey (Macaca fascicularis) soluble TfR1 (sCD71) (cynomolgus monkey (Macaca fascicularis)). The assay can be described thus: ELISA, plate coated with soluble cynomolgus monkey TfR1 (Sino Biological), 2-fold antibody dilutions, AP anti-human kappa detection, A405.
The target is the same in assay [2]. The assay can be described thus: ELISA, plate coated with soluble cynomolgus monkey TfR1 (sCD71).
The target in assay [3] is TfR1 (antigen; form in the assay not stated) (human) (UniProt P02786). Put plainly: ELISA and/or flow cytometry.
The target is the same in assay [4]. The assay can be described thus: assay not named in the sentence (ELISA and flow cytometry per paragraph 218).

These are yes or no findings as the source states them, for the method shown. Some binding calls cover weakened binding; strength is not graded here.

B1: H8L10 (antibody, human IgG1, V domains shown)
VH: QVQLVESGGGVVQPGRSLRLSCAASGYSFTGYTMNWVRQAPGNGLEWVARINPHNGGTDYNQKFKDRFTISRDNSKNTLYLQMNSLRAEDTAVYYCARGYYYYSLDYWGQGTTVTVSS
VL: EIVLTQSPDFQSVTPKEKVTITCSASSSIRYIHWYQQRPDQSPKRWIYDTSNLASGVPSRFSGSGSGTDFTLTINSLEAEDAATYYCHQRNSYPWTFGQGTKVEIK
B1: the binding result in assay [1], in assay [2] and in assay [3] was “binds” each time.

B2: H8L6 (antibody, human IgG1, V domains shown)
VH: QVQLVESGGGVVQPGRSLRLSCAASGYSFTGYTMNWVRQAPGNGLEWVARINPHNGGTDYNQKFKDRFTISRDNSKNTLYLQMNSLRAEDTAVYYCARGYYYYSLDYWGQGTTVTVSS
VL: EIVLTQSPDFQSVTPKEKVTITCSASSSIRYIHWYQQRPDQSPKRWIYDTSNLASGVPSRFSGSGSGTSYSLTINSLEAEDAATYYCQQRNSYPWTFGQGTKVEIK
As for B2, in assay [3], the binding result is given as “binds”.

B3: H8L8 (antibody, human IgG1, V domains shown)
VH: QVQLVESGGGVVQPGRSLRLSCAASGYSFTGYTMNWVRQAPGNGLEWVARINPHNGGTDYNQKFKDRFTISRDNSKNTLYLQMNSLRAEDTAVYYCARGYYYYSLDYWGQGTTVTVSS
VL: EIVLTQSPDFQSVTPKEKVTITCSASSSIRYIHWYQQRPDQSPKRWIYDTSNLASGVPSRFSGSGSGTSYSLTINSLEAEDAATYYCHQRNSYPWTFGQGTKVEIK
As to B3, the binding result in assay [3] is “binds”.

B4: H8 Chim (antibody, human IgG1, V domains shown)
VH: QVQLVESGGGVVQPGRSLRLSCAASGYSFTGYTMNWVRQAPGNGLEWVARINPHNGGTDYNQKFKDRFTISRDNSKNTLYLQMNSLRAEDTAVYYCARGYYYYSLDYWGQGTTVTVSS
VL: QIVLTQSPAIMSVSPGEKVTMTCSASSSIRYIHWYQQRPGTSPKRWIYDTSNLASGVPARFSGSGSGTSYSLTISSMEAEDAATYYCHQRNSYPWTFGGGTRLEIR
Consider B4, for which, in assay [4], the binding result is “binds”.

B5: H6L9 (antibody, human IgG1, V domains shown)
VH: EVQLVQSGAEVKKPGESLKISCKGSGYSFTGYTMNWVRQMPGKGLEWMGRINPHNGGTDYNQKFKDQVTISADKSISTAYLQWSSLKASDTAMYYCARGYYYYSLDYWGQGTLVTVSS
VL: EIVLTQSPATLSLSPGERATLSCSASSSIRYIHWYQQKPGQAPRRWIYDTSNLASGTPARFSGSGSGTDFTLTISSLEPEDFAVYYCHQRNSYPWTFGQGTKVEIK
B5: the binding result in assay [1], in assay [2] and in assay [3] was “binds” throughout.

B6: H8L9 (antibody, human IgG1, V domains shown)
VH: QVQLVESGGGVVQPGRSLRLSCAASGYSFTGYTMNWVRQAPGNGLEWVARINPHNGGTDYNQKFKDRFTISRDNSKNTLYLQMNSLRAEDTAVYYCARGYYYYSLDYWGQGTTVTVSS
VL: EIVLTQSPATLSLSPGERATLSCSASSSIRYIHWYQQKPGQAPRRWIYDTSNLASGTPARFSGSGSGTDFTLTISSLEPEDFAVYYCHQRNSYPWTFGQGTKVEIK
As to B6, the binding entry in assay [1], in assay [2] and in assay [3] was “binds” in each case.

B7: H6L6 (antibody, human IgG1, V domains shown)
VH: EVQLVQSGAEVKKPGESLKISCKGSGYSFTGYTMNWVRQMPGKGLEWMGRINPHNGGTDYNQKFKDQVTISADKSISTAYLQWSSLKASDTAMYYCARGYYYYSLDYWGQGTLVTVSS
VL: EIVLTQSPDFQSVTPKEKVTITCSASSSIRYIHWYQQRPDQSPKRWIYDTSNLASGVPSRFSGSGSGTSYSLTINSLEAEDAATYYCQQRNSYPWTFGQGTKVEIK
Regarding B7, in assay [3], the binding result is “binds”.

B8: H8L5 (antibody, human IgG1, V domains shown)
VH: QVQLVESGGGVVQPGRSLRLSCAASGYSFTGYTMNWVRQAPGNGLEWVARINPHNGGTDYNQKFKDRFTISRDNSKNTLYLQMNSLRAEDTAVYYCARGYYYYSLDYWGQGTTVTVSS
VL: EIVLTQSPATLSLSPGERATLSCSASSSIRYIHWYQQKPGQAPRRWIYDTSNLASGTPARFSGSGSGTSYSLTISSLEPEDFAVYYCQQRNSYPWTFGQGTKVEIK
In the case of B8, the binding result in assay [3] is on record as “binds”.

B9: H6L7 (antibody, human IgG1, V domains shown)
VH: EVQLVQSGAEVKKPGESLKISCKGSGYSFTGYTMNWVRQMPGKGLEWMGRINPHNGGTDYNQKFKDQVTISADKSISTAYLQWSSLKASDTAMYYCARGYYYYSLDYWGQGTLVTVSS
VL: EIVLTQSPATLSLSPGERATLSCSASSSIRYIHWYQQKPGQAPRRWIYDTSNLASGTPARFSGSGSGTSYSLTISSLEPEDFAVYYCHQRNSYPWTFGQGTKVEIK
With B9, the binding entry in assay [1], in assay [2] and in assay [3] was “binds” in each case.

B10: H8L7 (antibody, human IgG1, V domains shown)
VH: QVQLVESGGGVVQPGRSLRLSCAASGYSFTGYTMNWVRQAPGNGLEWVARINPHNGGTDYNQKFKDRFTISRDNSKNTLYLQMNSLRAEDTAVYYCARGYYYYSLDYWGQGTTVTVSS
VL: EIVLTQSPATLSLSPGERATLSCSASSSIRYIHWYQQKPGQAPRRWIYDTSNLASGTPARFSGSGSGTSYSLTISSLEPEDFAVYYCHQRNSYPWTFGQGTKVEIK
As for B10, the binding result in assay [3] is “binds”.

B11: H6L12 (antibody, human IgG1, V domains shown)
VH: EVQLVQSGAEVKKPGESLKISCKGSGYSFTGYTMNWVRQMPGKGLEWMGRINPHNGGTDYNQKFKDQVTISADKSISTAYLQWSSLKASDTAMYYCARGYYYYSLDYWGQGTLVTVSS
VL: EIVLTQSPDFQSVTPKEKVTITCSASSSIRYIHWYQQRPDQSPKLLIYDTSNLASGVPSRFSGSGSGTSYSLTINSLEAEDAATYYCHQRNSYPWTFGQGTKVEIK
B11: the binding entry in assay [3] is given as “binds”.

B12: H6L5 (antibody, human IgG1, V domains shown)
VH: EVQLVQSGAEVKKPGESLKISCKGSGYSFTGYTMNWVRQMPGKGLEWMGRINPHNGGTDYNQKFKDQVTISADKSISTAYLQWSSLKASDTAMYYCARGYYYYSLDYWGQGTLVTVSS
VL: EIVLTQSPATLSLSPGERATLSCSASSSIRYIHWYQQKPGQAPRRWIYDTSNLASGTPARFSGSGSGTSYSLTISSLEPEDFAVYYCQQRNSYPWTFGQGTKVEIK
As to B12, the binding entry in assay [3] is on record as “binds”.

B13: H6L11 (antibody, human IgG1, V domains shown)
VH: EVQLVQSGAEVKKPGESLKISCKGSGYSFTGYTMNWVRQMPGKGLEWMGRINPHNGGTDYNQKFKDQVTISADKSISTAYLQWSSLKASDTAMYYCARGYYYYSLDYWGQGTLVTVSS
VL: EIVLTQSPATLSLSPGERATLSCSASSSIRYIHWYQQKPGQAPRLLIYDTSNLASGTPARFSGSGSGTSYSLTISSLEPEDFAVYYCHQRNSYPWTFGQGTKVEIK
With B13, the binding entry in assay [3] is listed as “binds”.

B14: H6L10 (antibody, human IgG1, V domains shown)
VH: EVQLVQSGAEVKKPGESLKISCKGSGYSFTGYTMNWVRQMPGKGLEWMGRINPHNGGTDYNQKFKDQVTISADKSISTAYLQWSSLKASDTAMYYCARGYYYYSLDYWGQGTLVTVSS
VL: EIVLTQSPDFQSVTPKEKVTITCSASSSIRYIHWYQQRPDQSPKRWIYDTSNLASGVPSRFSGSGSGTDFTLTINSLEAEDAATYYCHQRNSYPWTFGQGTKVEIK
For B14, the binding entry in assay [3] is on record as “binds”.

B15: H6L8 (antibody, human IgG1, V domains shown)
VH: EVQLVQSGAEVKKPGESLKISCKGSGYSFTGYTMNWVRQMPGKGLEWMGRINPHNGGTDYNQKFKDQVTISADKSISTAYLQWSSLKASDTAMYYCARGYYYYSLDYWGQGTLVTVSS
VL: EIVLTQSPDFQSVTPKEKVTITCSASSSIRYIHWYQQRPDQSPKRWIYDTSNLASGVPSRFSGSGSGTSYSLTINSLEAEDAATYYCHQRNSYPWTFGQGTKVEIK
Take B15: the binding entry in assay [3] is “binds”.

B16: H6 Chim (antibody, human IgG1, V domains shown)
VH: EVQLVQSGAEVKKPGESLKISCKGSGYSFTGYTMNWVRQMPGKGLEWMGRINPHNGGTDYNQKFKDQVTISADKSISTAYLQWSSLKASDTAMYYCARGYYYYSLDYWGQGTLVTVSS
VL: QIVLTQSPAIMSVSPGEKVTMTCSASSSIRYIHWYQQRPGTSPKRWIYDTSNLASGVPARFSGSGSGTSYSLTISSMEAEDAATYYCHQRNSYPWTFGGGTRLEIR
Turning to B16, the binding entry in assay [4] is listed as “binds”.

B17: ch128.1 (antibody, human IgG1, V domains shown)
VH: EVQLQQSGPELVKPGASMKISCKASGYSFTGYTMNWVKQSHGENLEWIGRINPHNGGTDYNQKFKDKAPLTVDKSSNTAYMELLSLTSGDSAVYYCARGYYYYSLDYWGQGTSVTVSS
VL: QIVLTQSPAIMSVSPGEKVTMTCSASSSIRYIHWYQQRPGTSPKRWIYDTSNLASGVPARFSGSGSGTSYSLTISSMEAEDAATYYCHQRNSYPWTFGGGTRLEIR
Consider B17, for which the binding entry in assay [1] and in assay [2] was “binds” throughout.

B18: H7 Chim (antibody, human IgG1, V domains shown)
VH: QVQLVQSGAEVKKPGSSVKVSCKASGYSFTGYTMNWVRQAPGQGLEWMGRINPHNGGTDYNQKFKDRVTITADKSTSTAYMELSSLRSEDTAVYYCARGYYYYSLDYWGQGTLVTVSS
VL: QIVLTQSPAIMSVSPGEKVTMTCSASSSIRYIHWYQQRPGTSPKRWIYDTSNLASGVPARFSGSGSGTSYSLTISSMEAEDAATYYCHQRNSYPWTFGGGTRLEIR
Consider B18, for which the binding entry in assay [4] is listed as “binds”.
